Reference: PubChem BioAssay AID1508600 (Functional Genomics Laboratory (NCATS/FGL), 2020)
The campaign covered roughly 53,000 sequences. About 3,700 (7%) were called active.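 Rule for the calls: active = gene knockdowns whose robust z-score for IL-1 alpha signal is at least 2 or at most -2, so actives lie on both sides; inactive = the rest.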 This is one part of the list.

Experiment: Components of the Cytosolic LPS Sensing Pathway: Gene Identification via Genome-wide siRNA Screen;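 note: robust z of the log signal after scaling to non-targeting control siRNA wells of the plate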
Settings: RAW264.7 macrophages, IL-1a HTRF, actives lie on both sides, screened at 100 nM (by protocol), cells primed 5 h with Pam3CSK4 first
Outline: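 Cells (RAW264.7, 1×10^4 per well) were transfected with siRNA at 100 nM and cultured 48h at 37 degrees C. Pam3CSK4 was added for 5 hours; LipidA transfection followed for 24 hour. IL-1a was then measured by HTRF.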

z-score, active:
GCUGGGAUAUGAAAUCUAUTT against Gprc6a 2.74, GGACAAUUCAGAGUGAUAGTT against Mog -2.21, CCUACCACAACAUGUAUCCTT against S100a11 2.25

z-score, inactive:
GCCCAUAUCUUGCCGAAAUTT against Tm2d1 0.578, GGGAGUUUGACAUUUUCGATT against Lect2 -0.0931, GCCGAACAAAAACACCGAUTT against Trav3-3 1.1, GGCUGUCGGUUCAUUAACCTT against Atad1 -0.739, CCUAUGUUUGGUGAUUAUGTT against Alg6 0.264, GCACGGAAGAAUCCAAAGATT against Miga1 1.68, CCUGCCUGGACUAUCAAGATT against A530095I07Rik -1.44, CCAUAACCCUUAGGAAAAGTT against Fam78b -0.0447, GCCUUAUGUGUUACAUUAUTT against Prkar1a 0.782, GGCUAUGGACAAUAUGACUTT against Fdx1 -0.797, GGAGAAUUUAGAGCUACCATT against Atg10 -1.56, GGGUUAGUCACCUCAUUUUTT against Abhd5 1.08, GGAGAGCAUGUGACCAAAATT against Safb2 0.758, CGGGAAACGUGAAUUUUUUTT against Mtdh 0.635, GGCUGUUCAUUUAGAAGAATT against Rps27l 0.482, GGAACAGUGACUCUUCGGGTT against Sorbs1 -0.158, GGAGCUAAGUGAUUUUAGATT against Mtf1 0.403, GGAUCUAUGAUCUCUCAGUTT against Gstt3 0.144, GGCUUUAGCUAAAGAAGAUTT against Fam228b 0.087, GCUAACUAUCCCUCCACUGTT against Retnla -0.204, GAAAAGAGCUGUAAGAAUGTT against 1700001G17Rik 1.65, GGGAAGUCAUUCACAUAUUTT against Rab39b -1.58, GCUGAAGCAAGGUAGCGAUTT against Gbp5 0.277, GGAAAAAUCAAAAGUGUUGTT against Tamm41 -1.55, GGAUGUAAUGCGAAGUUUUTT against Vps52 0.0121, GGAAGUUAGCAUUUCUUCCTT against Xpnpep2 0.478
